# At least one peptide structure holds a part that was inferred or is arguable (an end, a ring closure or a residue).
# System: STAT3
# Assay: Immunoblot of phosphotyrosine 705 of STAT3 in F11 cells
# Assay type: cell-based
# Description: E) F11 cells were transfected with an indicated amount of pRNA-U6.1/Shuttle vector (empty), pRNA-U6.1/Shuttle-IL-6R siRNA, or pRNA-U6.1/Shuttle-LIFR siRNA. At 48 hrs after transfection, the cells were treated with 100 ng/ml IL-6, 100 ng/ml CNTF or 1 μM HNG at 37° for 15 min, and harvested. The results of immunoblot analysis using anti-phophoSTAT3 ([…]) antibody and anti-STAT3 antibody were shown in photos. A) F11 cells were added with an indicated amount of HN, HNG or HNA and harvested 15 min later for immunoblot analysis with antibodies recognizing phosphotyrosine 705 of STAT3 or STAT3. The results are shown in photos. B) F11 cells were transfected with 0.5 μg of pRNA-U1.6/Shuttle vector, pRNA-U6.1/Shuttle-WSX-1 siRNA, pRNA-U6.1/Shuttle-CNTF-R siRNA, both pRNA-U6.1/Shuttle-WSX-1 siRNA and pRNA-U6.1/Shuttle-CNTF-R siRNA (0.5 μg each), or pRNA-U6.1/Shuttle-FPR2 siRNA. The total amount of vectors was adjusted to be 1.0 μg by including a backbone vector. […] The results are shown in photos. Cell lysates (10-20 μg/lane) or pulled-down precipitates were subject to SDS-PAGE, and the proteins separated on the gel were transferred onto polyvinylidene difluoride membranes as described (Hashimoto et al, 2000). Visualization of the immunoreactive protein bands was performed by ECL (Amersham Pharmacia Biotech, Uppsala, Sweden).
compound,measurement,setting,value
"CC[C@H](C)[C@H](NC(=O)[C@H](CCC(=O)O)NC(=O)[C@H](CO)NC(=O)[C@@H](NC(=O)[C@H](CC(C)C)NC(=O)[C@H](CC(C)C)NC(=O)[C@H](CC(C)C)NC(=O)[C@H](CC(C)C)NC(=O)[C@H](CS)NC(=O)[C@H](CO)NC(=O)[C@H](Cc1ccccc1)NC(=O)CNC(=O)[C@H](CCCNC(=N)N)NC(=O)[C@@H]1CCCN1C(=O)[C@H](C)NC(=O)[C@@H](N)CCSC)[C@@H](C)O)C(=O)N[C@@H](CC(=O)O)C(=O)N[C@@H](CC(C)C)C(=O)N1CCC[C@H]1C(=O)N[C@H](C(=O)N[C@@H](CCCCN)C(=O)N[C@@H](CCCNC(=N)N)C(=O)N[C@@H](CCCNC(=N)N)C(=O)N[C@@H](C)C(=O)O)C(C)C [HN, Humanin]",phosphorylation of tyrosine 705 of STAT3,"F11 cells, 15 min",increased
same,phosphorylation of tyrosine 705 of STAT3,decrease of expression of endogenous CNTF-R or WSX-1 by siRNA,almost completely inhibited
same,phosphorylation of STAT3,"decrease of expression of endogenous IL-6R or LIF-R by siRNA, 1 μM HNG in FIG. 3E",did not attenuate

# Reference: patent US8173771B2, “Humanin receptor or humanin-like polypeptide receptor” (Keio Univeristy, priority 2005, dated 2012)
